{"sequences": {"note": "Sequences of proteins named here, by UniProt entry; tags and fusion partners are left off. A change or cut given only in a name is not applied to a line headed by its entry.", "UniProt P05552": "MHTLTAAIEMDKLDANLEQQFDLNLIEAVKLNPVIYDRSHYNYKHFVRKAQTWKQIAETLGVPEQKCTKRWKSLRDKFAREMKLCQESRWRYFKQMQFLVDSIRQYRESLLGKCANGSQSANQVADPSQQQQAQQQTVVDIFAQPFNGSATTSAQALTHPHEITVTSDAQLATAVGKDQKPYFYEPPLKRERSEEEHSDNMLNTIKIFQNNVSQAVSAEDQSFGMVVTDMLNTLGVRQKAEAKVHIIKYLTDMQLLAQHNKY"}, "source": "paper PMC10573801", "biological_target": "Adf-1 (UniProt P05552)", "experiment": "EMSA", "settings": "0.05-0.15 ug protein; 1x PBS pH 8.0, 5 mM MgCl2, 0.1 mM ZnSO4, 1 mM DTT, 0.1% NP-40, 10% glycerol, 1 ng poly(dI-dC), 30 min at room temperature; 60-80 ng Cy5-DNA; 1% agarose in 1x TBE; recombinant protein; protein details: 6xHis (pET32a fusion); label: Cy5; probe letters rebuilt from the primers and the genome", "note": "The exact form of at least one protein or probe is not confirmed."}
{"sequence": "GTTGCAACAATCTAATAACAATCCAAGTAATTATCCAAACAAGCGACGGCAAATGTCAAAGAAGGAACCCTAGAAAATACAAAACACGAATACAAGCCCGAAAAAGAAGAAGAAGCGGCGGAAGAACGCACTCAAAATCCGAAAATGAGCCATAAAACCCCAGTGAGAAATGCTACTGCTCTCTAGGCCACGCCCCCTTCACACGGAAGCCATAACGGCAGAACCAAAGTGCCGATAACTCAAAAAGAGAGAGGGCTATTCCAAGTCTGACGTGCGTAAGAGCGAGATACAGATAGGACTACGCGCACCATAATGGCTGCGCCGTAAAGCGAGAGCGATCCGAGCGAGATGGCTAACCGTATCTCTCCCTCTCTCCGCAGTCGCGGCGCAGTCGCTGCCTC (double strand) [bxd PRE Adf-1 binding site]", "values": [{"measurement": "binding result", "value": "binds"}]}
